Source: PubChem BioAssay AID1347075 (National Center for Advancing Translational Sciences (NCATS), 2019)
Out of some 400,000 compounds screened, about 5,500 (1.4%) were called active. The shares of active, inactive and inconclusive entries below differ from those in the screen. The call rests on the fitted dose curve; in most records, active means well fitted cell-killing curve with a large enough effect; inconclusive means small, poorly fitted or top-dose-only effect, or effect the other way; inactive means flat fitted curve, though single readings scatter. Potencies of inconclusive entries are doubtful fits and often do not repeat.

assay: qHTS assay for MDR1-selective chemotherapeutics: Primary screen using the parental adenocarcinoma cell KB-3-1; settings: KB-3-1 viability, CellTiter-Glo ATP luminescence, 72 h; series mostly up to 46.1 µM; further: nearly all actives have a fitted effect of over 60% in size
How it was run: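 Cells are dispensed, compounds pinned in, plates held at 37 °C for 72 h, then CellTiter-Glo is added and luminescence read after 10 minutes. Cell line: parental KB-3-1 in phenol-red-free DMEM, 10% FBS.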
Potency means the concentration at half of the fitted maximal effect.

Compound	Potency
CCCCn1nnc(NC(=S)NC(=O)c2cccs2)n1	inactive
O=C(NCCn1cc(SCc2ccc(Br)cc2)c2ccccc21)c1cccs1	inconclusive: 16.4 µM [cytotoxic, single point]
C=C(C)C(=O)Nc1nnc(-c2cccs2)s1	inactive
CC(NC(=O)Cn1c(NCCO)nc2ccccc21)c1ccccc1 (stereo not given)	inactive
Cc1ccnc(Nc2cccnc2)n1	inactive
CCOc1ccccc1C(=O)N/N=C/c1coc2ccc(Cl)cc2c1=O	inconclusive: 29.1 µM [cytotoxic, single point]
CN(C)S(=O)(=O)c1ccc(C(=O)N2CCC(c3nc4ccccc4o3)CC2)cc1	inconclusive: 29.1 µM [cytotoxic, single point]
O=c1[nH]c2ccccc2n1CCCSCCCn1c(=O)[nH]c2ccccc21	active: 20.6 µM
CCN(CC)c1ccc(C(=O)NNC(=O)CN2C(=O)NC(C)(c3ccccc3)C2=O)cc1 (stereo not given)	inactive
COc1ccc2cc(C#N)c(SCC(=O)OCc3ccccc3)nc2c1	inconclusive: 0.651 µM [rising, partial curve]
Oc1ccc2sc(-c3ccccc3O)c(-c3ccc(OCCN4CCCCC4)cc3)c2c1	inconclusive: 20.6 µM [cytotoxic, single point]
C[C@]12CC[C@@H]3c4ccc(O)cc4CC[C@H]3[C@@H]1C[C@@H](O)[C@@H]2O[C@@H]1O[C@H](C(=O)O)[C@@H](O)[C@H](O)[C@H]1O	inactive
O=C(COC(=O)/C=C/C(=O)OCC(=O)NC12CC3CC(CC(C3)C1)C2)NC12CC3CC(CC(C3)C1)C2	inconclusive: 23.1 µM [cytotoxic, single point]
CCCn1c(C)cc(-c2csc(N)n2)c1C	inconclusive: 13 µM [cytotoxic, partial curve]
O=C(Nc1nc2ccccc2n1Cc1ccccc1)c1ccco1	inconclusive: 20.6 µM [cytotoxic, single point]
COC(=O)CCC[C@H]1CC2(C[C@H](CCCO[Si](C)(C)C(C)(C)C)N1C(=O)OC(C)(C)C)OCCO2	inconclusive: 29.1 µM [cytotoxic, single point]
CC(=O)NC(c1ccc2ccccc2c1)c1ccc2cccnc2c1O (stereo not given)	inconclusive: 0.82 µM [cytotoxic, full curve, poor fit]
CCOc1ccccc1-c1nc(Cn2c(=O)cc(C)c3c(C)nn(-c4ccccc4)c32)c(C)o1	inactive
CCOC(=O)c1ccc(-n2c(CN3CCN(CCO)CC3)nc3ccc([N+](=O)[O-])cc3c2=O)cc1	inconclusive: 25.9 µM [rising, partial curve, poor fit]
COc1ccc(C(CCNCc2ccc(OC(C)C)cc2)c2ccccc2OC)cc1 (stereo not given)	inconclusive: 18.4 µM [cytotoxic, single point]
COc1ccccc1NC(=O)Cn1ccn(-c2cccc3ccccc23)c(=O)c1=O	inconclusive: 29.1 µM [cytotoxic, single point]
COc1ccc(-c2nn(-c3ccccc3)cc2/C=N/N=C(N)N)cc1OC	inconclusive: 29.1 µM [cytotoxic, partial curve, poor fit]
Oc1c(CN2CCCCC2)ccc2cccnc12	inconclusive: 13 µM [cytotoxic, partial curve, poor fit]

Exported as a markdown table: part of the list above

| Compound | Potency |
| --- | --- |
| CCCCn1nnc(NC(=S)NC(=O)c2cccs2)n1 | inactive |
| O=c1[nH]c2ccccc2n1CCCSCCCn1c(=O)[nH]c2ccccc21 | active: 20.6 µM |
| O=C(Nc1nc2ccccc2n1Cc1ccccc1)c1ccco1 | inconclusive: 20.6 µM [cytotoxic, single point] |
| Oc1c(CN2CCCCC2)ccc2cccnc12 | inconclusive: 13 µM [cytotoxic, partial curve, poor fit] |

Continuation:

Compound	Potency
Cc1ccc(C)c(S(=O)(=O)Nc2ccc3[nH]c(=O)[nH]c3c2)c1	inactive
O=C(COc1ccc(/C=N/NC(=O)c2cc3ccccc3o2)cc1Br)Nc1ccccc1	active: 13 µM
O=C(/C=C/c1ccccc1)Nc1ccc(Cl)cn1	active: 18.4 µM
CCc1ccc(C(=O)C(C)OC(=O)CNS(=O)(=O)c2ccc(C)cc2)cc1 (stereo not given)	inactive
O=C(NNC(=S)Nc1cccc(C(F)(F)F)c1)c1ccc(Cl)cc1Cl	inconclusive: 13 µM [cytotoxic, partial curve, poor fit]
COc1ccccc1CNC(=O)[C@@H](NC(=O)C1CCN(C(=O)[C@@H]2CCCN2C(=O)OC(C)(C)C)CC1)C(C)C	inactive
CCN(CC)C(=O)Cn1nc(-c2ccncc2)nc1SCC(=O)Nc1ccc(OC)cc1	inconclusive: 29.1 µM [cytotoxic, single point]
CCCCN(CCCC)c1ccc(C=Nc2ccc(/C=C/c3ccnc4ccccc34)cc2)cc1C	inconclusive: 29.1 µM [cytotoxic, partial curve, poor fit]
O=S(=O)(NCC(Nc1ccc(Cl)cc1)c1ccccc1)c1ccc(Cl)cc1 (stereo not given)	inconclusive: 23.1 µM [cytotoxic, single point]
COc1cccc(/C=C2\SC(=S)N(CCCC(=O)N3CCCC3)C2=O)c1	inconclusive: 29.1 µM [cytotoxic, single point]
Nc1nc2ccccc2n1S(=O)(=O)c1ccc(Cl)cc1	inactive
O=C(N/N=C/c1ccc(Cl)cc1)c1ccc2nc[nH]c2c1	inconclusive: 29.1 µM [cytotoxic, single point]
Cn1c(C(=O)OCC(=O)NCCc2ccccc2)cc2sccc21	inactive
CC(OC(=O)Cn1ccccc1=O)C(=O)Nc1cc(Cl)cc(Cl)c1 (stereo not given)	inactive
Cc1ccc(/C=N/c2sc(Cc3ccccc3)c(C)c2C(N)=O)o1	inconclusive: 29.1 µM [cytotoxic, single point]
O=C(CCCCn1c(=O)c2ccccc2n(Cc2cccc(F)c2)c1=O)NCc1ccc2c(c1)OCO2	inconclusive: 20.6 µM [cytotoxic, single point]
N#Cc1ccccc1NC(=O)CN1C(=O)NC2(CCCC2)C1=O	inconclusive: 29.1 µM [rising, single point]
COc1ccc(/C=C/c2ccncc2)cc1OC	inactive
COc1cccc(CNC(=O)CN2C(=O)N(c3ccc(C)cc3C)S(=O)(=O)c3ccccc32)c1OC	inactive
NC(=O)c1c(N)[nH]c(C(=O)c2ccccc2)c1-c1ccccc1Br	inactive
CN(C)S(=O)(=O)c1cccc(NC(=O)CSc2nc3c(cc2C#N)C(=O)CC(C)(C)C3)c1	active: 20.6 µM
Cc1ncc(CN2CCCC(C(=O)Nc3ccc(-n4ccnc4C)cc3)C2)cn1 (stereo not given)	inactive
